The list shows a part of the results. The main result of the screen is listed elsewhere. These columns were measured beside it and carry no call. Compounds called inactive in the main read-out are mostly missing here. The note in brackets gives the kind of curve behind each potency; many fits are weak.
Assay: Cell signaling CRE-BLA (Fsk stim)
Conditions: CHO CRE-bla reporter (cAMP response element driving beta-lactamase), forskolin EC10, beta-lactamase ratio; measured here: 460 nm blue channel
Description: NIH Molecular Libraries Screening Centers Network [MLSCN]
NIH Chemical Genomics Center [NCGC]
Assay Provider: Marshall W. Nirenberg, U.S. National heart lung & blood institute
Memories persist for different lengths of time, from seconds or minutes to a lifetime. There are two kinds of memory: short-term memory (STM) and long-term memory (LTM). STM lasts for minutes to hours, which maybe mediated by modifications of molecules involved in synaptic functions. LTM lasts for days or longer, and may be due to the formation of new synapses or restructuring of existing synapses. LTM, but not STM, requires gene transcription and synthesis of proteins. CREB (cyclic-AMP Responsive Element Binding Protein) is one of the candidates plays an important role for enhancement of some types of LTM. CREB, a family of transcription factors, regulates the transcription of genes containing cAMP Responsive Elements (CRE). CRE is a nucleotide sequence often found in the promoter regions of genes that are binding sites for CREB.
Using a beta-lactamase reporter-gene under control of cAMP responsive element, a cell-based assay [CellSensor(TM) CRE-bla CHO developed by Invitrogen Corp.] was used to measure forskolin-induced signaling. Library compounds were measured for their ability to modulate positively or negatively the action of EC10 NKH 477, a water soluble forskolin, on reporter gene activity. Compounds were screened in a titration series in 1536-well format. Positive and negative modulators were identified based on the AC50 values derived from the screening data.
NCGC Assay Protocol Summary
2000 cells/5uL in Opti-MEM medium containing 0.5% dialyzed FBS, 0.1 mM NEAA, 1 mM sodium pyruvate and 10 mM HEPES was dispensed into 1536-well plates and cells were cultured at 37 degrees Celsius overnight. […] And then the plates were incubated at 37 degrees Celsius for 3 hours. 1 uL of CCF4-dye mixture was added to each well. After incubated at room temperature for 2 hours the plates were measured on an EnVision plate reader at Excitation 405nm, Emission1=460nm and Emission 2=530nm. The %Activity was determined from the ratio of 460nm/530nm.
Keywords: NIH Roadmap, MLSCN, MLSMR, qHTS, NCGC, CRE, beta-lactamase reporter-gene assay.

SMILES | AC50
CCc1nnc(NC(=O)CC(=O)Nc2ccccc2C(=O)O)s1 | 2.51 µM [rising, single point]
CCc1cc(Br)ccc1N1C(=O)C2CC=CCC2C1=O (stereo not given) | 0.00316 µM [falling, full curve, poor fit]
CCOC(=O)c1csc(Nc2nc3ccc(F)cc3s2)n1 | 31.6 µM [falling, single point]
C=C1C(CCl)(CCl)C2(Cl)C(Cl)C(Cl)C1(Cl)C2(Cl)Cl (stereo not given) | 3.98 µM [rising, partial curve]
O=c1cc(CN2CCC3(CC2)OCCO3)c2c(ccc3ccccc32)o1 | 5.01 µM [rising, partial curve]
COc1cccc(-c2csc(N3CCN(CC(=O)Nc4ccc5c(c4)OCO5)CC3)n2)c1 | 10 µM [falling, single point]
Nc1nc(CSc2ccccn2)nc(Nc2ccccc2)n1 | 25.1 µM [rising, single point]
CN(C)C(=O)C(CCN1CCC(O)(c2ccc(Cl)cc2)CC1)(c1ccccc1)c1ccccc1 | 12.6 µM [falling, single point]
COc1ccc(CNc2ncnc3ccc(-c4cccc(C#N)c4)cc23)c(OC)c1 | 10 µM [rising, partial curve]
Cc1cccc(N2CC(C(=O)O)CC2=O)c1 (stereo not given) | 15.8 µM [falling, partial curve]
OC(COCc1ccco1)CN1CCN(C(c2ccccc2)c2ccccc2)CC1 (stereo not given) | 3.16 µM [falling, single point]
COc1ccc(CNc2ncnc3ccc(-c4c(C)noc4C)cc23)c(OC)c1 | 5.01 µM [rising, partial curve]
CCOC(=O)Cc1nn(CCc2ccccn2)c(=O)c2ccccc12 | 12.6 µM [rising, partial curve, poor fit]
COC(=O)c1cc(OC)c(OC)cc1NC(=O)CCC1CCCC1 | 10 µM [rising, partial curve]
c1ccc(-c2noc(CSc3nnc(Cc4cccs4)n3-c3ccccc3)n2)cc1 | 10 µM [rising, partial curve]
CCn1c(CSc2nnc(-c3cccnc3)n2-c2ccccc2C)nc2cc(C(=O)O)ccc21 | 0.00316 µM [falling, full curve, poor fit]
CC(C)=CCC/C(C)=C/CN(CC(C)O)CC(C)O (stereo not given) | 0.01 µM [falling, full curve]
Cc1cc(NC(=O)CCCC(=O)NCc2cccs2)no1 | 25.1 µM [rising, single point]
Cn1nnnc1NCc1c(F)cccc1Cl | 25.1 µM [rising, single point]
CCOC(=O)C1CCN(C(=O)C2CC(=O)N(c3ccc(C)cc3)C2)CC1 (stereo not given) | 3.98 µM [rising, single point]
CCOC(=O)CSc1nc2c(sc(=S)n2CCc2ccccc2)c(=O)n1Cc1ccco1 | 5.01 µM [rising, single point]
COc1cc2c3c(c1)C1(C(=O)N3C(C)(C)C=C2C)C(C#N)=C(N)Oc2cc(O)ccc21 (stereo not given) | 10 µM [falling, partial curve, poor fit]
COc1ccc(N2C(=O)CCC(C(C)=O)=C2C)cc1 | 0.00631 µM [falling, full curve]
C=CCn1c(N2CCCC2)nc2c1c(=O)[nH]c(=O)n2C | 12.6 µM [rising, partial curve]

3 compounds out of the list, sorted by molecular weight, rising:
SMILES | AC50
Cn1nnnc1NCc1c(F)cccc1Cl | 25.1 µM [rising, single point]
COc1ccc(CNc2ncnc3ccc(-c4cccc(C#N)c4)cc23)c(OC)c1 | 10 µM [rising, partial curve]
COc1cc2c3c(c1)C1(C(=O)N3C(C)(C)C=C2C)C(C#N)=C(N)Oc2cc(O)ccc21 (stereo not given) | 10 µM [falling, partial curve, poor fit]

Continued:

SMILES | AC50
COc1cc2c(cc1OC)C(c1cccs1)NCC2 (stereo not given) | 12.6 µM [rising, partial curve]
Cc1cccc(-n2c(O)c(C=Nc3ccc4c(c3)OCO4)c3ccccc3c2=O)n1 | 2.51 µM [rising, partial curve]
Cc1c(C(=O)NCCC2=CCCCC2)oc2ccc(S(=O)(=O)N3CCOCC3)cc12 | 12.6 µM [falling, partial curve]
Cc1noc(C)c1CSc1ncnc2sc3c(c12)CCC3 | 0.0398 µM [falling, full curve]
Cc1ccc2nc(CC(=O)c3ccc4ccccc4c3)c(=O)[nH]c2c1 | 0.794 µM [rising, partial curve, poor fit]
COc1ccc(OC)c(NC(=O)C2CC(=O)N(c3ccccc3)C2)c1 (stereo not given) | 25.1 µM [rising, single point]
Cc1cc(C)c2c(=O)[nH]c(SCC(=O)N3CCCCC3)nc2n1 | 1.26 µM [rising, partial curve]
COc1cccc(-c2cc(NCc3cccnc3)ncn2)c1 | 12.6 µM [rising, partial curve]
CCNc1ncc2nc(C)c(=O)n(Cc3cccc(OC)c3)c2n1 | 12.6 µM [rising, partial curve]
COc1ncnc2c1N=C1CC(C)(C)CC(N)=C1S2 | 25.1 µM [rising, single point]
COc1cc(C(=O)NCCc2cn3ccc(C)cc3n2)cc(OC)c1OC | 6.31 µM [rising, partial curve]
CCOc1ccc(N(Cc2cc3cc(OC)ccc3[nH]c2=O)S(C)(=O)=O)cc1 | 25.1 µM [rising, single point]
Cn1c(=O)c2c(nc3sccn32)n(C)c1=O | 0.794 µM [falling, full curve]
O=c1[nH]c(=O)n(C2CCCCCC2)c(O)c1C=NCc1ccc(F)cc1 | 12.6 µM [rising, partial curve]
CC(=O)Nc1ccc(S(=O)(=O)NCc2ccc(C(=O)NCCN3CCCCCC3)cc2)cc1 | 0.00398 µM [falling, full curve, poor fit]
O=C(CCCN1C(=O)C2C3C=CC(C3)C2C1=O)N1CCN(c2ccccc2)CC1 (stereo not given) | 25.1 µM [rising, single point]
c1ccc(Nc2c3c(nc4ncnn24)CCC3)cc1 | 10 µM [rising, partial curve]
COc1cccc(C2CC(c3ccccc3Cl)n3nnnc3N2)c1 (stereo not given) | 12.6 µM [rising, single point]
CCOC(=O)N1CCC(NC(=O)CSc2cc(=O)n(C)c3ccc(Cl)cc23)CC1 | 0.2 µM [rising, full curve, poor fit]
CCn1cc(C(=O)N2CC=C(c3ccccc3)CC2)c(=O)c2ccc(C)nc21 | 10 µM [rising, partial curve]
NC(N)=NC(N)=Nc1cccc(Cl)c1 | 31.6 µM [falling, single point]
O=C1c2ccccc2NC2CCCCC12 (stereo not given) | 0.398 µM [falling, single point]
Cc1nc2nc(C)n(-c3ccccc3)c2s1 | 12.6 µM [rising, single point]
CCOc1c(Br)ccc2c1sc1nc[nH]c(=O)c12 | 12.6 µM [falling, single point]

SMILES | AC50
CSCCOC(=O)C1=C(C)NC(=O)CC1c1ccccc1Cl (stereo not given) | 7.94 µM [falling, partial curve]
c1ccc(N2CCN(Cc3ccsc3)CC2)nc1 | 0.00631 µM [falling, full curve]
N#Cc1ccc(CSc2nnc(NC(=O)C3CCCO3)s2)cc1 (stereo not given) | 5.01 µM [falling, partial curve]
Cc1ccc(SCC(=O)NCC(C)C)cc1 | 0.0631 µM [rising, full curve]
O=C(N1CCOCC1)N1CCN(c2nc(-c3ccccc3)cs2)CC1 | 12.6 µM [rising, partial curve]
O=C(NCc1nc(-c2ccccc2)no1)c1ccc(Br)o1 | 0.00316 µM [falling, full curve]
O=C(O)C1CCN(C(=O)c2scc3c2OCCO3)CC1 | 2 µM [rising, partial curve]
Cc1cnc(CNc2ncncc2-c2c(C)noc2C)cn1 | 20 µM [rising, single point]
CCSc1nc2c(c(=O)[nH]1)C(c1cccnc1)C(C(=O)OC(C)C)=C(C)N2 (stereo not given) | 31.6 µM [rising, single point]
CCOC(=O)CSc1cccc2cccnc12 | 12.6 µM [falling, partial curve]
COc1ccc(CN2C(=O)CCC2(C)C(=O)NC2CCCCC2)c(OC)c1 (stereo not given) | 0.0398 µM [falling, full curve]
C=CCn1c(SCc2nc3ccccc3nc2C)nnc1-c1ccoc1C | 15.8 µM [rising, partial curve]
CC(C)CN(CC(C)C)S(=O)(=O)N1CCC(C(=O)NCc2cccs2)CC1 | 3.98 µM [rising, single point]
O=c1c(O)c(-c2ccc(O)cc2)oc2cc(O)ccc12 | 25.1 µM [rising, partial curve]
Cc1noc(NS(=O)(=O)c2ccc(N3Cc4ccccc4C3=O)cc2)c1C | 10 µM [rising, partial curve]
NC(=O)CSc1nc2scc(-c3ccco3)c2c(=O)n1-c1ccccc1 | 15.8 µM [rising, partial curve]
Cc1nn(C(=O)c2ccco2)c(C)c1CN1C(=O)c2ccccc2C1=O | 3.98 µM [rising, partial curve]
CC(=O)Nc1ccc(S(=O)(=O)NCCN2CCOCC2)cc1 | 0.00316 µM [falling, full curve, poor fit]
Clc1ccc(C2=Nn3c(nnc3-c3n[nH]c4c3CCC4)SC2)cc1 | 0.631 µM [rising, full curve]
CC(C)=CC(=O)OCC(=O)NC(=O)NC(C)(C)C | 0.126 µM [falling, partial curve, poor fit]
CCn1c(=N)c(C(=O)NCCCOC)cc2c(=O)n3cccc(C)c3nc21 | 1.58 µM [rising, full curve]
CCN(C(=O)Cc1cccs1)c1nnc(-c2cccnc2)s1 | 10 µM [rising, single point]
